Experimental data published in article PMC12630686, “A degron-mimicking molecular glue drives CRBN homo-dimerization and degradation” (Nature Communications, 2025).
Results are given in words; binding and its absence hold for the method and conditions named. Binding seen in cells or lysates may run through a third protein.

Protein sequences, listed by entry. Tags and fused reporters are not part of them. Lines headed by an entry give the natural chain unless they say otherwise; changes in a name come on top. Chains listed by the source or under a name are the forms on record and can include a tag or linker.
UniProt Q96SW2: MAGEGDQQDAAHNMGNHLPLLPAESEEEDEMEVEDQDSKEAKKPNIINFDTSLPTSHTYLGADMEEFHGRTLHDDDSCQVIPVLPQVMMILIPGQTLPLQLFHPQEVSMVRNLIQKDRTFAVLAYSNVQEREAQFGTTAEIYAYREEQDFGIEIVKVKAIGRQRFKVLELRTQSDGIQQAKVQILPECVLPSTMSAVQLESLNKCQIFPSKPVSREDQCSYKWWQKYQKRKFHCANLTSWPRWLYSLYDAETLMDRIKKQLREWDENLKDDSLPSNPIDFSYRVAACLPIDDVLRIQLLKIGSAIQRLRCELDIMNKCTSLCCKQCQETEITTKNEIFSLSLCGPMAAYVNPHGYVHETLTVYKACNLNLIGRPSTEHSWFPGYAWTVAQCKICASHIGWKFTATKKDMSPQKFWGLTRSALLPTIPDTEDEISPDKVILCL
hCRBN-NanoLuc with a 191-248 aa deletion (Trunc) (Q96SW2, form named): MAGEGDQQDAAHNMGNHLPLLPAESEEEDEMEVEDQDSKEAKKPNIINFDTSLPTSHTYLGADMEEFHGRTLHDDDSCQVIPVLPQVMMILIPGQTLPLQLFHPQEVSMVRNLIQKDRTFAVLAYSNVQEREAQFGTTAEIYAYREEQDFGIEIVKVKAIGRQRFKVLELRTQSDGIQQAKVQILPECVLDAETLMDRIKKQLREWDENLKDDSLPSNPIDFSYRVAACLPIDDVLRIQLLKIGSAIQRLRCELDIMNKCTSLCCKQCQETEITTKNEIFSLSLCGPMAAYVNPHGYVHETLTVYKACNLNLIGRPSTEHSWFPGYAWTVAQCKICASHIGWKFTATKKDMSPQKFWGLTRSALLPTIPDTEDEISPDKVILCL
UniProt Q8C7D2: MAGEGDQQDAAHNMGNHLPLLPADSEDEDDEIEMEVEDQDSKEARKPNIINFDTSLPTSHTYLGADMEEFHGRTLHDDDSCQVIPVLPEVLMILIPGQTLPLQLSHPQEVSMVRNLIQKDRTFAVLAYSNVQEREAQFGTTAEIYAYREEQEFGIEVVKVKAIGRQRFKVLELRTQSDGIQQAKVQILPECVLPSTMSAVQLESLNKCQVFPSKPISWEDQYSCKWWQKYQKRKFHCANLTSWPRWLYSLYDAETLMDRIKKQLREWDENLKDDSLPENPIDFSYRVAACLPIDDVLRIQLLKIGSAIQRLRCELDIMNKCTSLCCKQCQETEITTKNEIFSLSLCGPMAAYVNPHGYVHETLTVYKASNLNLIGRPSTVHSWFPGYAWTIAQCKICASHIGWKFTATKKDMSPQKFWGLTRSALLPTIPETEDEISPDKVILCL

Columns and labels:
[1] = target: CRBN-NanoLuc W386A (human) (UniProt Q96SW2); assay: FRET or BRET; NanoBRET in HEK293T cells transfected with HaloTag-CRBN and CRBN-NanoLuc plasmids at 10:1; HaloTag NanoBRET 618 ligand overnight; MRT-31619 in serial dilution for 3 h; ratio corrected for background and normalised to DMSO; in one condition 20 uM lenalidomide 1 h before (interaction diminished)
[2] = target: hCRBN-NanoLuc with a 191-248 aa deletion (Trunc) (human) (UniProt Q96SW2); assay: as above

Substance	binding [1]	binding [2]
HaloTag-CRBN W386A (from UniProt Q96SW2 1-442)	no binding	–
HaloTag-mouse CRBN (wild type) (from UniProt Q8C7D2 1-445)	–	no binding
